Assay results reported in article PMC10409943.

By UniProt entry, the sequences of proteins in these tests, tags left out. Residues count along the entry.
UniProt P10912, residues 19-638: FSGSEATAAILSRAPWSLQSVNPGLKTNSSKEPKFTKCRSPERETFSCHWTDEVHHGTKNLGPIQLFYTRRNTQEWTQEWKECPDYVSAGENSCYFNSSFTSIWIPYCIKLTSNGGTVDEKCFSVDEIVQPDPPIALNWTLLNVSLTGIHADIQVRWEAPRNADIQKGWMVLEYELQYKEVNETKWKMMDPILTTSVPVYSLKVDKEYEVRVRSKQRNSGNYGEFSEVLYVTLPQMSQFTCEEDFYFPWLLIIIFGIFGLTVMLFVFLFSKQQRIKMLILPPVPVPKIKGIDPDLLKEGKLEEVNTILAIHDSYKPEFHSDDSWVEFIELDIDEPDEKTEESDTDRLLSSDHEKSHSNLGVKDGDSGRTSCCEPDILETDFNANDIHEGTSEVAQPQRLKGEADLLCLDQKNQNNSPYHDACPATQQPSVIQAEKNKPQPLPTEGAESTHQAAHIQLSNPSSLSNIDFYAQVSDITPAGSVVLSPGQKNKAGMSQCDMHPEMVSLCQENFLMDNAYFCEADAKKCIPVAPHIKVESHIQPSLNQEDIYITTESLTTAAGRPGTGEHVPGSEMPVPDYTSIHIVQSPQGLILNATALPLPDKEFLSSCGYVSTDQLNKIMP

Target: growth hormone receptor (human (endogenous in RL95-2)) (UniProt P10912)
Experiment: affinity purification with mass spectrometry; RL95-2 whole cell lysates (1 mg/ml), cells serum-starved and treated with or without 500 ng/ml GH; precipitated separately with anti-GHRIC and anti-GHREC antibodies on protein-G magnetic beads, eluates combined; peptides found in the IgG control filtered out; n = 3 per group

binding | Binder
binds | ACO2 (protein, UniProt Q99798 28-780) QRAKVAMSHFEPNEYIHYDLLEKNINIVRKRLNRPLTLSEKIVYGHLDDPASQEIERGKSYLRLRPDRVAMQDATAQMAMLQFISSGLSKVAVPSTIHCDHLIEAQVGGEKDLRRAKDINQEVYNFLATAGAKYGVGFWKPGSGIIHQIILENYAYPGVLLIGTDSHTPNGGGLGGICIGVGGADAVDVMAGIPWELKCPKVIGVKLTGSLSGWSSPKDVILKVAGILTVKGGTGAIVEYHGPGVDSISCTGMATICNMGAEIGATTSVFPYNHRMKKYLSKTGREDIANLADEFKDHLVPDPGCHYDQLIEINLSELKPHINGPFTPDLAHPVAEVGKVAEKEGWPLDIRVGLIGSCTNSSYEDMGRSAAVAKQALAHGLKCKSQFTITPGSEQIRATIERDGYAQILRDLGGIVLANACGPCIGQWDRKDIKKGEKNTIVTSYNRNFTGRNDANPETHAFVTSPEIVTALAIAGTLKFNPETDYLTGTDGKKFRLEAPDADELPKGEFDPGQDTYQHPPKDSSGQHVDVSPTSQRLQLLEPFDKWDGKDLEDLQILIKVKGKCTTDHISAAGPWLKFRGHLDNISNNLLIGAINIENGKANSVRNAVTQEFGPVPDTARYYKKHGIRWVVIGDENYGEGSSREHAALEPRHLGGRAIITKSFARIHETNLKKQGLLPLTFADPADYNKIHPVDKLTIQGLKDFTPGKPLKCIIKHPNGTQETILLNHTFNETQIEWFRAGSALNRMKELQQ
binds | TCOF1 (protein, UniProt Q13428 1-1488) MAEARKRRELLPLIYHHLLRAGYVRAAREVKEQSGQKCFLAQPVTLLDIYTHWQQTSELGRKRKAEEDAALQAKKTRVSDPISTSESSEEEEEAEAETAKATPRLASTNSSVLGADLPSSMKEKAKAETEKAGKTGNSMPHPATGKTVANLLSGKSPRKSAEPSANTTLVSETEEEGSVPAFGAAAKPGMVSAGQADSSSEDTSSSSDETDVEGKPSVKPAQVKASSVSTKESPARKAAPAPGKVGDVTPQVKGGALPPAKRAKKPEEESESSEEGSESEEEAPAGTRSQVKASEKILQVRAASAPAKGTPGKGATPAPPGKAGAVASQTKAGKPEEDSESSSEESSDSEEETPAAKALLQAKASGKTSQVGAASAPAKESPRKGAAPAPPGKTGPAVAKAQAGKREEDSQSSSEESDSEEEAPAQAKPSGKAPQVRAASAPAKESPRKGAAPAPPRKTGPAAAQVQVGKQEEDSRSSSEESDSDREALAAMNAAQVKPLGKSPQVKPASTMGMGPLGKGAGPVPPGKVGPATPSAQVGKWEEDSESSSEESSDSSDGEVPTAVAPAQEKSLGNILQAKPTSSPAKGPPQKAGPVAVQVKAEKPMDNSESSEESSDSADSEEAPAAMTAAQAKPALKIPQTKACPKKTNTTASAKVAPVRVGTQAPRKAGTATSPAGSSPAVAGGTQRPAEDSSSSEESDSEEEKTGLAVTVGQAKSVGKGLQVKAASVPVKGSLGQGTAPVLPGKTGPTVTQVKAEKQEDSESSEEESDSEEAAASPAQVKTSVKKTQAKANPAAARAPSAKGTISAPGKVVTAAAQAKQRSPSKVKPPVRNPQNSTVLARGPASVPSVGKAVATAAQAQTGPEEDSGSSEEESDSEEEAETLAQVKPSGKTHQIRAALAPAKESPRKGAAPTPPGKTGPSAAQAGKQDDSGSSSEESDSDGEAPAAVTSAQVIKPPLIFVDPNRSPAGPAATPAQAQAASTPRKARASESTARSSSSESEDEDVIPATQCLTPGIRTNVVTMPTAHPRIAPKASMAGASSSKESSRISDGKKQEGPATQVSKKNPASLPLTQAALKVLAQKASEAQPPVARTQPSSGVDSAVGTLPATSPQSTSVQAKGTNKLRKPKLPEVQQATKAPESSDDSEDSSDSSSGSEEDGEGPQGAKSAHTLGPTPSRTETLVEETAAESSEDDVVAPSQSLLSGYMTPGLTPANSQASKATPKLDSSPSVSSTLAAKDDPDGKQEAKPQQAAGMLSPKTGGKEAASGTTPQKSRKPKKGAGNPQASTLALQSNITQCLLGQPWPLNEAQVQASVVKVLTELLEQERKKVVDTTKESSRKGWESRKRKLSGDQPAARTPRSKKKKKLGAGEGGEASVSPEKTSTTSKGKAKRDKASGDVKEKKGKGSLGSQGAKDEPEEELQKGMGTVEGGDQSNPKSKKEKKKSDKRKKDKEKKEKKKKAKKASTKDSESPSQKKKKKKKKTAEQTV

Results are given in words; binding and its absence hold for the method and conditions named. In cells and extracts the contact can be indirect. These calls come from enrichment with a bait or labelling near it, and not all partners need be listed.
